Measured values reported in article doi:10.1101/216143.
No constants are given. Whether binding was seen depends on the method and setting. In cells and extracts the contact can be indirect. Some entries that bind do so weakly or less than the wild type.

Sequences of proteins named here, by UniProt entry; tags and fusion partners are left off. A change or cut given only in a name is not applied to a line headed by its entry.
UniProt Q9Y2J8: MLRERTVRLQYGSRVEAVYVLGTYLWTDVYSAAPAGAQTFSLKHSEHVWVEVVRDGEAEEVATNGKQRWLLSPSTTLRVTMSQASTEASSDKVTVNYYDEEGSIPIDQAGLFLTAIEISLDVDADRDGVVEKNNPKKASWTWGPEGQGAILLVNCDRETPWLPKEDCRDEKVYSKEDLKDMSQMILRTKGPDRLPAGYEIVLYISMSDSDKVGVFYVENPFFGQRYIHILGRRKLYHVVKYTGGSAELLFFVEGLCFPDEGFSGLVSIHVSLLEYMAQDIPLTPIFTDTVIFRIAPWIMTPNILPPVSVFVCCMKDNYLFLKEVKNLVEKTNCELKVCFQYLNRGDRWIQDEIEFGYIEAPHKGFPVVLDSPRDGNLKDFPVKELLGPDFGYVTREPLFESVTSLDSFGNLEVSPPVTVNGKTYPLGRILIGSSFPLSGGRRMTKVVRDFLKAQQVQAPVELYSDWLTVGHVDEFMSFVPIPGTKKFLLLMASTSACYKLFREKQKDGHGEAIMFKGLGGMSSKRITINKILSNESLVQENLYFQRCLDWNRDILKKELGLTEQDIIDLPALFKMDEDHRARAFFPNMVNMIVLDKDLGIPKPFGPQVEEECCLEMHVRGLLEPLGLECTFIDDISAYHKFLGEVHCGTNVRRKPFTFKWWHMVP
UniProt P50750: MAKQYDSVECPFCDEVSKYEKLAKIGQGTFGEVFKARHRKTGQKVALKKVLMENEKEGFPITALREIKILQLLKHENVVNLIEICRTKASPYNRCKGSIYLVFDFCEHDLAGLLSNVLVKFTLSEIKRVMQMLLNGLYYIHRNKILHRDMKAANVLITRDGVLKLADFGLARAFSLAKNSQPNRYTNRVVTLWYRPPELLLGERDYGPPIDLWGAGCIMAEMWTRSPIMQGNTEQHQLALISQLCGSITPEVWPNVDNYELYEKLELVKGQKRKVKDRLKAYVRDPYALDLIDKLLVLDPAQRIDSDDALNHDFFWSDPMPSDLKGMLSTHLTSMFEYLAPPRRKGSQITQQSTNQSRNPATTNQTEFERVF
UniProt O60563: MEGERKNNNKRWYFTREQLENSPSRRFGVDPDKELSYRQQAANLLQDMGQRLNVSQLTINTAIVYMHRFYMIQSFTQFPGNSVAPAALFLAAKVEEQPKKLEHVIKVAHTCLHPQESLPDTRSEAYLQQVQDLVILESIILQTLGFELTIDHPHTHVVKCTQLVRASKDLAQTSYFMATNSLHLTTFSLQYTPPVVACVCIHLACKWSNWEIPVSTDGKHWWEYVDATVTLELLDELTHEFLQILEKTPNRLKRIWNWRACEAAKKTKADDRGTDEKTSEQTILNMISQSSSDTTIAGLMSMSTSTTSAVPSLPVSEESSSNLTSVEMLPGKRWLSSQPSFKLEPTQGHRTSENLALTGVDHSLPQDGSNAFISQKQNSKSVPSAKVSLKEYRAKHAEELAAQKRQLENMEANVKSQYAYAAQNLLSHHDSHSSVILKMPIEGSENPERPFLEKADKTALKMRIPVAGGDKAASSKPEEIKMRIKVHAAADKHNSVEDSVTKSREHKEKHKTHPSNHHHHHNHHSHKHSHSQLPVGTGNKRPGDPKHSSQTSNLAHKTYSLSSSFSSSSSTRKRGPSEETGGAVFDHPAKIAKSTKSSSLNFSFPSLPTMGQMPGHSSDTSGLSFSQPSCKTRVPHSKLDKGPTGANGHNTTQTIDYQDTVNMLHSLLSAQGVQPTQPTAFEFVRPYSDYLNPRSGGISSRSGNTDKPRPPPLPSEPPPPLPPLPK

Assays:
[1] = molecular target: PADI2 (peptidyl arginine deiminase 2), endogenous (human (endogenous in T47D and MCF7)) (UniProt Q9Y2J8); test: co-IP
[2] = molecular target: P-TEFb (positive transcription elongation factor b) kinase complex, endogenous (human (endogenous in T47D and Raji)) (UniProt P50750+O60563); test: co-IP

Row | binding [1] | binding [2] | Substance
1 | binds |  | P-TEFb (positive transcription elongation factor b) kinase complex, endogenous (from UniProt P50750 1-372; O60563 1-726)
2 |  | binds | PADI2 (peptidyl arginine deiminase 2), endogenous (from UniProt Q9Y2J8 1-665) (enzyme)
